Laboratory results reported in patent US7615377B2, “Fluorescein-based metal sensors” (Massachusetts Institute of Technology, priority 2003, dated 2009).

Assay: Hg^2+ binding studies by absorption spectroscopy (Job analysis, metal binding titration) to obtain stoichiometry
Conditions: 10 μM probe; for Job analysis, break (change in slope): 10 μM Hg^2+ solution

SMILES	Job analysis, break (change in slope) (pH 7 (50 mM PIPES, 100 mM KCl))	metal binding titration, break (pH 7 (50 mM PIPES, 100 mM KCl))	metal binding titration, break (pH 11 (50 mM CABS, 100 mM KCl))
CC(C)(S)CN(Cc1ccccn1)Cc1c(O)ccc2c(-c3ccccc3C(=O)O)c3cc(Cl)c(=O)cc-3oc12 [sensor 2]	0.5	–	–
CCSCCN(CCSCC)Cc1ccccc1NCc1c(O)ccc2c(-c3ccccc3C(=O)O)c3cc(Cl)c(=O)cc-3oc12 [sensor 3, 2-{5-[(2-{[Bis-(2-ethylsulfanyl-ethyl)-amino]-methyl}-phenylamino)-methyl]-2-chloro-6-hydroxy-3-oxo-3H-xanthen-9-yl}-benzoic acid]	–	1 equivalent of Hg^2+	–
O=C(O)c1ccccc1-c1c2cc(Cl)c(=O)cc-2oc2c(CN(CCS)Cc3ccccn3)c(O)ccc12 [sensor 1]	0.5	–	1 equivalent of Hg^2+
